Data published in the supplement of paper PMC3334620.
Whole data set: some 33,000 sequences, median “E-score (-0.5 to 0.5)” near -0.0014, cut for the highest 2% near 0.25. This is one part of the list.

What follows are sequences tested against T1, Cad1 (UniProt P24813) (assay: PBM E-score (8-mer binding enrichment) (E-score (-0.5 to 0.5)); higher = stronger / more preferred TF binding). Settings: protein concentration: 100 nM; construct: GST-full length.
T1 sequence: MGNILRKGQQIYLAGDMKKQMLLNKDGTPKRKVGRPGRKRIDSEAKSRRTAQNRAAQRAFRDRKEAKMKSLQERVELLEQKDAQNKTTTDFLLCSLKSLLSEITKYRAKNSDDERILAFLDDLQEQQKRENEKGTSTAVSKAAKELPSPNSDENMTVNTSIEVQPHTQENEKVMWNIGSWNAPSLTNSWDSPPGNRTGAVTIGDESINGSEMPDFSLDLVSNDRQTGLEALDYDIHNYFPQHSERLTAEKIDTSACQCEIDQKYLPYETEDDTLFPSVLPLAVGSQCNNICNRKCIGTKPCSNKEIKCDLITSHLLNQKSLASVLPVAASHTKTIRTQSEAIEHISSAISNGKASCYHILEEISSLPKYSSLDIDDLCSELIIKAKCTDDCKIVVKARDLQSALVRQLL
Outline: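 Yeast transcription factors carrying a GST tag, as full-length proteins or DNA-binding domains, were produced by PURExpress in vitro transcription/translation. About 100-200 nM protein was applied to universal all-10-mer Agilent arrays, double-stranded by primer extension on fresh or once-stripped slides. Bound protein was detected with fluorescent anti-GST, and scans were normalised with masliner. The Universal PBM Analysis Suite gave each ungapped eight-base word, pooled with its reverse complement, an E-score, a modified Wilcoxon-Mann-Whitney statistic.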

Sequence	PBM E-score
AACCGACG	0.186
CCCCAATA	0.00769
GAGTTGGC	-0.105
CCGGAAGA	0.00753
AGTAAGGC	0.0168
CATACGCC	-0.151
ACCACGCA	0.0237
AGTGACTC	-0.0274
AGTTCTAA	0.071
AGGACGTG	0.0498
GTTCTCGA	0.165
AATTAATT	0.285
CTAGTGTC	0.0979
CTGGATAA	-0.0617
ACTTATGA	0.0416
GCTTTTTA	-0.0089
ACGTGAGA	-0.0525
AAAGGTCC	0.0087
ACCTTGGA	-0.0359
AGAGAGTG	-0.167
GTTCGATA	0.182
TAAGTCGA	0.148
ATCCGGGC	-0.0019
AATCCCCG	-0.12
AGGCCCCC	-0.439

Sequence	PBM E-score
ACACCTGG	-0.169
CGATGGGA	0.00434
GTGTCACA	0.252
CCAGGGAA	-0.141
TGGGTTAA	-0.0973
ACGTTACC	-0.196
GGTCAATA	-0.00374
ATGGTTCG	0.0935
GAAGGTCC	-0.183
CACTGTGG	-0.0778
GCACATCA	0.0324
TAGACTAA	-0.0572
AGGAGATG	-0.0209
GCAGCAGC	-0.0716
ACGTACAG	-0.136
ACGACGCG	0.144
GTTCCAGA	0.0539
ATTCAATC	0.263
CGTTGATA	0.204
GGGCCAAA	0.0693
ACTGCGTC	-0.142
ATCGTCGG	-0.0922
ACTCGTTC	-0.0122
CTTGCGAA	0.184
ACGGAAAT	0.288

Taken from above:
PBM E-score, ACTCGTTC is entered as -0.0122
PBM E-score, ACTGCGTC is entered as -0.142
PBM E-score, GCACATCA is entered as 0.0324

The list goes on.

Sequence	PBM E-score
GAACGCAA	0.017
ACCCAGGT	-0.257
AGGTTAGG	0.0523
AACAAAAA	0.128
TAGCACCA	0.0282
GCGAGTCA	-0.0262
CGCAACTC	0.211
CAAGGCTA	-0.0732
ACATCCTA	-0.134
CTCGCGCC	-0.0612
AGCGACTA	0.0789
AATGCGTA	0.0758
GTGCGTGA	0.0224
ACTCTTTA	-0.108
CCAGCGAC	-0.0563
CATGCAAC	0.105
AAAAGACC	-0.0654
AGTATAGG	-0.0461
CTAATAAC	0.161
CTTGCATC	-0.129
ATGCCGCC	-0.0855
ACAAGGCC	0.0001
CTTATACA	0.0612
AGCTGGAT	0.0235
CTGATTTA	0.0612

Sequence	PBM E-score
CTCAAATA	-0.0391
GGTAAGAC	-0.0844
GAGTGTAC	-0.142
GTAGCACA	0.0151
ACCAATCC	-0.0543
AAACTGGT	-0.0556
CCTTGAAC	-0.122
GACACTGA	0.0442
GGGGTTAA	-0.158
CGGACGGA	-0.00744
AGAGACAT	-0.145
AGTGACGA	0.045
CACGTCCG	-0.0398
AGAGTTTA	0.155
GATCATCC	0.00224
ACAATTAG	-0.144
CCCGCACC	-0.0643
AACCGGAT	0.132
ATGTTCCG	0.0267
ATCACGCG	0.187
AAGGGCCC	-0.174
AAAAGGTG	-0.108
ATACTAGG	-0.025
CCCAATCG	0.0261
ACCAGCGT	-0.0786

Sequence	PBM E-score
GGGCAACA	-0.0207
CACAAGCA	-0.138
GATGATAA	0.195
AACTGAGA	0.00938
ATTCAAGG	-0.13
AGGCCCGG	-0.312
CCCCCGAG	-0.393
AGAAGTTA	-0.0303
AGCGTACA	-0.0344
ATCATGGG	-0.0515
ATTCCCTG	0.117
CGCCTGAC	0.149
GTCGAGCA	-0.158
GATCCGCC	0.121
ACTGTGGA	-0.121
AGGGAGGA	-0.242
AAGCGCAA	0.195
AGACCAGA	0.0503
GTAGCTAC	0.139
AATGGTCC	0.0918
CCGCCTAG	-0.136
AGCAGTAG	-0.155
CGGAACTA	0.0846
ATTGCTAA	0.256
CACATTAG	-0.103

Quoted at random: two records from the list.
Sequence	PBM E-score
AAAGGTCC	0.0087
TAGACTAA	-0.0572

More results

Sequence	PBM E-score
GAATATCC	0.0877
AGACGACT	-0.0688
GGATATCC	0.202
CTTGGATC	-0.0474
ACGCAACT	0.103
GAAGATAA	0.0962
CAAGTCAG	-0.0206
AACTTAAG	0.0278
AGGGAAAG	-0.25
CGGTGGAA	-0.0736
GACCGATA	0.0943
ATGGAGTC	-0.0103
GAACTGCC	0.00888
CCCGATCG	0.0489
ATCTGCGA	0.0716
GTTCATCA	0.106
GCAGATAC	0.095
CTGATATA	0.0682
AGCACTAG	-0.00122
AGCTGACT	0.138
CTGTAGTA	0.191
CTGCGAAA	0.0969
CGATCACC	-0.0201
ACGACTCT	0.0531
CATCTGGA	-0.165

Sequence	PBM E-score
AACGTGCA	-0.0818
GATAGCCC	-0.213
CCGGCGTA	-0.0131
GATTTTTA	-0.0272
CCTTCGAG	-0.189
CGGTAGCC	0.0668
GGGTATAA	-0.089
CGATACCA	0.0121
ACATTCTA	-0.091
AACCGTGC	0.154
CCAATAGA	-0.191
CACTCTGA	-0.095
CAGTTCGA	-0.0357
ATTGTTGG	0.143
AGTGGGAA	0.0875
CTGTATCA	-0.0921
GAAGAATC	-0.0942
GAGGCTGC	-0.0933
CGAGCCCC	-0.346
GACTACCA	-0.266
CCGGGTAA	0.126
ACCGATCG	0.0355
AGTCATAT	-0.0253
CGACAGGA	0.0186
AAGCTTAG	0.219

A second format for some results above:
Sequence | PBM E-score
AGCTGGAT | 0.0235
GAGTGTAC | -0.142
CACATTAG | -0.103
CCGGGTAA | 0.126

Following part

Sequence	PBM E-score
TCTGAGCA	0.0835
ACCCTATC	-0.144
GAGACGTA	-0.0175
ATTTGGAG	-0.204
ACATTAAA	0.11
CCTGTATA	-0.00199
CGTACTCC	-0.124
CCTATTTC	0.0937
AGGGATTG	0.0279
GCGCGGTA	0.221
ACACTACC	-0.0866
TACCTCCA	-0.115
AGTGCTAA	0.13
GTCAGCCA	0.1
AACCTTAA	0.0881
GGGGCTAA	-0.0954
GGGTGCTA	-0.152
ATATAGGC	0.0282
ACCGAAAA	0.242
CAACAAGC	0.033
ACAGCGAG	0.043
CCACGTGA	0.0693
TGATTTAA	0.168
AAAGTCTC	-0.186
GCAATTGC	0.33

Sequence	PBM E-score
AACGTGGG	-0.00895
GGATTGTA	0.0691
ACGGCGCC	0.139
CCTCTCGA	-0.204
AGCATCCG	-0.0477
ATGCTCTG	-0.244
CAATGTTC	-0.0524
GGGACTTA	-0.0461
CTACGAAG	-0.245
CAACCCTG	-0.0802
ACCTACGT	-0.0266
ATCGCACA	0.0418
GCGCATGA	-0.0108
CATGCACA	0.151
CATATTGA	-0.12
AGCCCGGA	-0.0503
CATCTAAC	-0.0706
CGGTGCTA	0.0153
CAAACGCA	-0.119
CATTGGAG	0.0782
AATGACTC	-0.0782
GTAACTAA	0.17
CGGGTGCA	-0.148
CAATGGCC	-0.208
CAGTGGGC	-0.177

Sequence	PBM E-score
CCCCTGCA	-0.246
GACATCAC	0.00538
CTCTGTCC	0.0196
CATCACGA	-0.0197
CTAGGCAA	-0.101
ATACATTC	-0.0148
GACTTGCC	-0.113
AATGACAG	0.0671
ACAAGAGA	-0.0185
ACTTCCTA	-0.0279
CGTTAGAA	0.161
GCAGCACC	-0.0839
ACACTAAA	0.144
AGCGCGTC	0.0884
AATGTCGT	0.0252
GGCCGCAA	0.0101
CGAACGTA	-0.0401
CCATGTCC	-0.127
CTGGGTCC	-0.305
AGAGACAC	-0.0303
ACGTAAAT	-0.00128
GCGAACCC	0.0563
AGAAAACT	0.0817
ACGGACCC	-0.0395
CTTCCATC	-0.0678

Sequence	PBM E-score
CGACCAGA	0.0524
GATCTTGC	0.056
ATCAGTTG	0.0213
AAGCGCGA	0.101
GACATAGC	0.128
ATCGCACG	-0.087
TCGGCAAA	-0.0575
GAGCGATC	0.00623
AATAGACT	-0.00447
ACTCTCCC	-0.178
ACCAAGGA	-0.0611
ATCGGGGC	-0.23
CAGTACTA	0.105
CCGTGTAC	0.12
ATAACCCC	-0.191
ACATGAGT	-0.0168
ACTTGAGC	-0.213
GATTTTAC	-0.0346
GTCGTGGA	-0.0177
AATTCCTC	-0.0624
CCTATATC	0.154
CTCATAAG	0.0121
TCTGCGCA	0.068
AGAGGTAC	-0.24
AAGTAGAA	-0.105

Sequence	PBM E-score
ACAAGACC	-0.192
ACCAGGAG	-0.182
CGAAATAG	0.0158
CTCGAAGC	0.00892
ATATAGTA	0.162
GCCGCGAA	-0.0612
CTAATAGA	0.154
GACGAAGC	-0.153
GGAACGAC	-0.0184
CATCCCCC	-0.47
CGTCCGAC	0.0418
ATCGCTTA	0.191
GACGGATA	0.0464
AGATTCGG	0.163
AGCACATC	0.0911
CGGGGGAG	-0.432
TGCACTAA	0.32
ACTATTGA	0.187
GAGTATGA	0.0494
AGTGGATA	0.0112
TCCGATAA	-0.0102
AGACGGGG	-0.136
GGCGAAGA	-0.137
CTGAATAA	0.231
TAATTATA	0.306

Sequence	PBM E-score
CACGGTAG	-0.0181
ACCACTTG	-0.116
CAAGGATA	0.013
CCAGCTTC	-0.0391
CGCACTAC	0.0013
CCCCTACG	-0.215
CCCAAAAC	0.115
AGCCCCTC	-0.0424
CACTAGTG	0.117
CATTATGA	-0.179
GTCGTTAA	0.0765
GTAGGCAA	-0.113
AGAGGCTA	-0.216
GTTCCTCA	0.0209
AGCAATAG	-0.0777
AACATACA	-0.0678
ACCGTGCG	0.0974
CGGCTTAA	0.235
CCCCACAG	-0.28
GATCTACC	-0.079
ACGTCGTG	0.136
CATTCTAC	-0.108
AACGACTT	-0.0875
CTTAGAAG	-0.0858
AGCATCGC	-0.0978

Sequence	PBM E-score
GACTCCTA	-0.0875
AGCGTATG	-0.095
CCCGGGTA	0.0006
AAACGTTG	-0.0452
CAATACTA	0.0552
CAGTCATG	0.0236
AACCCTGC	-0.181
CACATATG	-0.129
ACAATCCT	0.11
ATGTGTCA	0.203
CTGGCTAC	-0.259
CGGGCTGC	0.022
GATTTATA	0.319
AATAATCC	0.194
GTACCTAA	-0.179
ACCCGCCC	0.114
AACTCTGG	-0.0832
CGTAGCTA	-0.00071
ATTGCTGG	-0.127
